In one series the test system is HEK293T cells. Put plainly: Cytotoxic assay (Cell Counting Kit-8), HEK293T. The class given is cell-based, human. Conditions: for SI HEK293T / 3D7: SI = mean CC50 (HEK293T)/mean IC50 (3D7); for SI HEK293T / MRA-1239: SI = mean CC50 (HEK293T)/mean IC50 (MRA-1239); for SI HEK293T / MRA-1240: SI = mean CC50 (HEK293T)/mean IC50 (MRA-1240); for SI HEK293T / W2: SI = mean CC50 (HEK293T)/mean IC50 (W2); for SI for HEK293T cells (text, all strains and isolates): SI = mean CC50/mean IC50. On the procedure: (§1) HepG2 (JCRB1054) and HEK293T cell lines were obtained from the Japanese Collection of Research Bioresources (JCRB, Osaka, Japan) and Prof. Yoshiharu Matsuura (Osaka University, Osaka, Japan), respectively. The cells were cultured in Dulbecco’s modified Eagle’s medium (DMEM (1.0 g/L glucose) with L-glutamine and sodium pyruvate; Nacalai Tesque, Kyoto, Japan) supplemented with 10% (v/v) fetal bovine serum (FBS; Gibco-BRL, Grand Island, NY, USA) in a humidified incubator with 5% CO2 at 37 °C. For the cytotoxic assay, the cells (5 × 10^3/well) were seeded in a 96-well plate. […] Cell viability was measured using a Cell Counting Kit-8 (Dojindo) according to the manufacturer’s instructions. Briefly, 10 µL CCK-8 reagent was added to each well containing culture medium and incubated for 2 h under standard culture conditions. The absorbance of the sample was measured at 450 nm using a PowerWave HT microplate spectrophotometer (BioTek Instruments, Winooski, VT, USA). The cell viability was expressed as a percentage of the absorbance of the untreated control cells after subtracting the appropriate background intensity. The CC50 (mean ± SEM) was calculated as described in IC50. The SI, which is the ratio between the cytotoxicity and anti-malarial activity, was calculated according to the following equation. SI=mean CC50/mean IC50.

Another series relates to HepG2 cells. Put plainly: Cytotoxic assay (Cell Counting Kit-8), HepG2. The conditions noted are these: for SI HepG2 / MRA-1239: SI = mean CC50 (HepG2)/mean IC50 (MRA-1239); for SI HepG2 / MRA-1240: SI = mean CC50 (HepG2)/mean IC50 (MRA-1240); for SI HepG2 / 3D7: SI = mean CC50 (HepG2)/mean IC50 (3D7); for SI HepG2 / W2: SI = mean CC50 (HepG2)/mean IC50 (W2); for SI for HepG2 cells (text, all strains and isolates): SI = mean CC50/mean IC50. The class given is cell-based, human. Here is the method:
as §1

A value given as a limit tells only on which side of the number the result lay.

The text below walks through data of PMC6631887, “In vitro and in vivo characterization of anti-malarial acylphenoxazine derivatives prepared from basic blue 3” (Malaria Journal, 2019).

As for `CCN(CC)c1ccc2c(c1)Oc1cc(N(CC)CC)ccc1N2C(C)=O` [ITT-001, 1-(3,7-Bis(diethylamino)-10H-phenoxazin-10-yl)ethanone], in the series on HEK293T cells, the “SI HEK293T / 3D7” value came out at 28.6, the “SI HEK293T / MRA-1239” value turned out to be 9.2, the “SI HEK293T / MRA-1240” value is 8.2 and the “SI HEK293T / W2” value was found to be 28.8. In addition, in the series on HepG2 cells, the “SI HepG2 / MRA-1239” value is 90.1 and the “SI HepG2 / MRA-1240” value is listed as 12.6.

For `CCN(CC)c1ccc2c(c1)Oc1cc(N(CC)CC)ccc1N2C(=O)C(C)(C)C` [ITT-002, 1-(3,7-Bis(diethylamino)-10H-phenoxazin-10-yl)-2,2-dimethylpropan-1-one], in the series on HEK293T cells, the “SI HEK293T / 3D7” value was 18.7, the “SI HEK293T / MRA-1239” value is given as 9.7, the “SI HEK293T / MRA-1240” value is 8.2 and the “SI HEK293T / W2” value is 19.2. For the same compound, in the series with HepG2 cells, the “SI HepG2 / 3D7” value is on record as over 4672.9, the “SI HepG2 / MRA-1239” value is given as over 2415.5, the “SI HepG2 / MRA-1240” value is recorded as over 2049.2 and the “SI HepG2 / W2” value is given as over 4807.7.

On to `CCN(CC)c1ccc2c(c1)Oc1cc(N(CC)CC)ccc1N2C(=O)C1CC1` [ITT-003], for which, in the series on HEK293T cells, the “SI HEK293T / 3D7” value is reported as 938.8, the “SI HEK293T / MRA-1239” value came to 369.5, the “SI HEK293T / MRA-1240” value amounted to 293.9 and the “SI HEK293T / W2” value came to 958.3. In the series with HEK293T cells, the “SI for HEK293T cells (text, all strains and isolates)” value (“SI for HEK293T cells” for short) is recorded as over 290. In addition, in the series with HepG2 cells, the “SI HepG2 / 3D7” value is given as over 5102.0, the “SI HepG2 / MRA-1239” value is given as over 2008.0, the “SI HepG2 / MRA-1240” value is reported as over 1597.4 and the “SI HepG2 / W2” value is listed as over 5208.3. For the same compound, the “SI for HepG2 cells (text, all strains and isolates)” value (shortened to “SI for HepG2 cells”) in the series on HepG2 cells is on record as over 1500.

As for `CCN(CC)c1ccc2c(c1)Oc1cc(N(CC)CC)ccc1N2C(=O)c1ccccc1` [ITT-004, (3,7-Bis(diethylamino)-10H-phenoxazin-10-yl)(phenyl)methanone], in the series on HEK293T cells, the “SI HEK293T / 3D7” value was 929.2, the “SI HEK293T / MRA-1239” value turned out to be 397.7, the “SI HEK293T / MRA-1240” value was 344.3 and the “SI HEK293T / W2” value came out at 853.7. Also, in the series on HEK293T cells, the “SI for HEK293T cells” value was over 290. Further, in the series with HepG2 cells, the “SI HepG2 / 3D7” value is recorded as over 4424.8, the “SI HepG2 / MRA-1239” value is reported as over 1893.9, the “SI HepG2 / MRA-1240” value is over 1639.3 and the “SI HepG2 / W2” value is listed as over 4065.0. The “SI for HepG2 cells” value in the series on HepG2 cells is recorded as over 1500.

With `CCN(CC)CC(=O)N1c2ccc(N(CC)CC)cc2Oc2cc(N(CC)CC)ccc21.Cl` [ITT-005, 1-(3,7-Bis(diethylamino)-10H-phenoxazin-10-yl)-2-(diethylamino)ethanone hydrochloride], in the series on HEK293T cells, the “SI HEK293T / 3D7” value was 5.3, the “SI HEK293T / MRA-1239” value was determined as 5.6, the “SI HEK293T / MRA-1240” value is 4.0 and the “SI HEK293T / W2” value is 5.0. For the same compound, in the series on HepG2 cells, the “SI HepG2 / 3D7” value was determined as 33.2, the “SI HepG2 / MRA-1239” value came out at 35.3, the “SI HepG2 / MRA-1240” value is reported as 25.0 and the “SI HepG2 / W2” value stood at 31.6.

As to `CCN(CC)c1ccc2c(c1)Oc1cc(N(CC)CC)ccc1N2C(=O)c1ccc(F)cc1` [ITT-006, (3,7-Bis(diethylamino)-10H-phenoxazin-10-yl)(4-fluorophenyl)methanone], in the series with HEK293T cells, the “SI HEK293T / 3D7” value came out at 1283.0, the “SI HEK293T / MRA-1239” value came to 494.5, the “SI HEK293T / MRA-1240” value amounted to 462.6 and the “SI HEK293T / W2” value was found to be 850.0. The “SI for HEK293T cells” value in the series with HEK293T cells is listed as over 290. Also, in the series on HepG2 cells, the “SI HepG2 / MRA-1239” value is listed as over 1818.2; the “SI HepG2 / MRA-1240” value is recorded as over 1700.7; the “SI HepG2 / W2” value is recorded as over 3125.0; the “SI for HepG2 cells” value is recorded as over 1500.

For the compound `CCN(CC)c1ccc2nc3ccc(=[N+](CC)CC)cc-3oc2c1` [basic blue 3], in the series on HEK293T cells, the “SI HEK293T / 3D7” value turned out to be 6.6, the “SI HEK293T / MRA-1239” value came out at 4.0, the “SI HEK293T / MRA-1240” value came out at 3.6 and the “SI HEK293T / W2” value is on record as 4.4. In addition, in the series with HepG2 cells, the “SI HepG2 / 3D7” value amounted to 312.5, the “SI HepG2 / MRA-1239” value is recorded as 192.3, the “SI HepG2 / MRA-1240” value is recorded as 169.5 and the “SI HepG2 / W2” value is recorded as 208.3.
